The record followed here is article PMC11729550, “Discovery of indole analogue Tc3 as a potent pyroptosis inducer and identification of its combination strategy against hepatic carcinoma” (Theranostics, 2025).

The nature of the data set: Liver microsome metabolic stability assay. The settings on record: human, microsomes. Here is the method: The reaction media contained liver microsomes (0.5 mg/mL), 1.0 mM β-nicotinamide adenine dinucleotide phosphate (β-NADPH), 3 mM MgCl2 phosphate buffer. Microsomal suspensions were pre-incubated with Tc3 for 3 min at 37℃. The reaction was initiated with the addition of β-NADPH and samples were collected at 0, 5, 15, 30 and 60 min. The negative control was excluded of β-NADPH. Midazolam was incubated similarly as a positive control substrate. At each time point, an aliquot was mixed acetonitrile. Samples were centrifuged and then supernatant was mixed with ultrapure water for LC-MS/MS analysis.

With `Cc1ncc2n1-c1ccc(Cl)cc1C(c1ccccc1F)=NC2` [midazolam, reference compound], the half-life (usually how long it takes for the measured level to halve) at 1 μM was determined as 2.9 min.
